Reference: patent publication US20250092054A1, “FUSED PYRIDINES FOR CONTROLLING INVERTEBRATE PESTS” (FMC Corporation, priority 2021, published 2025)
Some of these results come from one statement about several compounds together.

Key:
[1] = system: diamondback moth (Plutella xylostella (L.)); experiment: Test A: control of diamondback moth, foliar spray on mustard plant; assay type: in vivo; settings: mustard plant pre-infested with neonate larvae, assessed after 6 days
[2] = system: fall armyworm (Spodoptera frugiperda (J. E. Smith)); experiment: Test B: control of fall armyworm, foliar spray on corn (maize) plant; assay type: in vivo; settings: corn plant pre-infested with 1-day-old larvae, assessed after 6 days
[3] = system: Western Flower Thrips (Frankliniellla occidentalis (Pergande)); experiment: Test G: control of Western Flower Thrips through contact and/or systemic means; assay type: in vivo, Frankliniella occidentalis; settings: sprayed at 2 ppm; Soleil bean plant, thrips adults and nymphs added; assessed after 6 days

Structure (SMILES) | control efficacy very good to excellent: feeding damage (40% or less feeding damage and/or 100% mortality) ([1]; sprayed at 0.4 ppm) [%] | control efficacy very good to excellent: feeding damage (40% or less feeding damage and/or 100% mortality) ([1]; sprayed at 2 ppm) [%] | control efficacy very good to excellent: feeding damage (40% or less feeding damage and/or 100% mortality) ([2]; sprayed at 0.4 ppm) [%] | control efficacy very good to excellent: feeding damage (40% or less feeding damage and/or 100% mortality) ([2]; sprayed at 2 ppm) [%] | control efficacy very good to excellent: plant damage (30% or less plant damage and/or 100% mortality) [3] [%]
CC(=O)NCc1ncc(C2=NOC(c3cccc(C(F)(F)F)c3)(C(F)(F)F)C2)c2ccoc12 (centres unmarked) [Compound 1, N-[[4-[4,5-dihydro-5-(trifluoromethyl)-5-[3-(trifluoromethyl)phenyl]-3-isoxazolyl]furo[2,3-c]pyridin-7-yl]methyl]acetamide] | ≤ 40 | ≤ 40 | ≤ 40 | ≤ 40 | 
O=C(NC1CC1)c1ncc(C2=NOC(c3cccc(C(F)(F)F)c3)(C(F)(F)F)C2)c2ccoc12 (centres unmarked) [Compound 15, N-cyclopropyl-4-[4,5-dihydro-5-(trifluoromethyl)-5-[3(trifluoromethyl)phenyl]-3-isoxazolyl]furo[2,3-c]pyridine-7-carboxamide] |  | ≤ 40 |  | ≤ 40 | 
CCC(=O)NCc1ncc(C2=NOC(c3cccc(C(F)(F)F)c3)(C(F)(F)F)C2)c2ccoc12 (centres unmarked) [Compound 23, N-[[4-[4,5-dihydro-5-(trifluoromethyl)-5-[3-(trifluoromethyl)phenyl]-3-isoxazolyl]furo[2,3-c]pyridin-7-yl]methyl]propanamid] | ≤ 40 | ≤ 40 | ≤ 40 | ≤ 40 | ≤ 30
